# Source: article PMC12040169 (PLOS Biology, 2025)
# The other results are listed elsewhere or left out.
# Tested on: T1, CTL2-GFP (C. trachomatis L2/434/Bu, GFP-expressing)
# T1 construct: L2/434/Bu, GFP-expressing
# Parameters: species or system HeLa; Intracellular C. trachomatis growth in HeLa cells, bulk GFP fluorescence relative to DMSO
# Settings: bulk GFP, single well; 28.5 h, 10 µM; inhibitor
row,SMILES,% of control remaining [%]
1,O=C(c1ccccc1)N1CCC(c2nnc(-c3ccsc3)o2)CC1 [CBK283371],135.71
2,O=c1c2cc(F)ccc2nc2n1CCN(Cc1ccsc1)CC2 [CBK284860],100.691
3,Cc1ccc(C(=O)N2CCC(C(=O)NC(c3ccccc3)c3ccsc3)CC2)cc1 (stereo not shown) [CBK060154],115.863
4,COc1ccc(OC)c(S(=O)(=O)n2ccc3c(N4CCNCC4)nccc32)c1 [CBK059067C],113.667
5,COc1ccc(-c2nc(-c3ccncc3)ncc2C(=O)NCc2ccncc2)cc1 [CBK291112],141.014
6,CCC(C(=O)O)N1C(=O)NC2C1N(C)C(=O)N2C (stereo not shown) [CBK287039],126.54
7,O=C(O)Cc1ccc(Oc2ncc(C(F)(F)F)cc2Cl)cc1 [CBK161657],138.212
8,O=C(Nc1cccc(Cl)c1)c1nnc(C(=O)NC2CCCCC2)s1 [CBK294406],151.179
9,Cc1cccnc1C1(O)CCN(C(=O)Cc2ccccc2Cl)CC1 [CBK283682],145.42
10,CSc1nc2c(cc1C#N)CCC2 [CBK026532],113.36
11,CC(=O)N1CCc2c([nH]c3ccccc23)C1CNCc1ccc(F)cc1 (stereo not shown) [CBK066968],197.3
12,O=C(Nc1ccccc1)[C@H]1CN2CCC1C[C@@H]2Cn1cc(C2(O)CCCC2)nn1 (stereo partly shown) [CBK289091],116.065
13,COc1ccc(NC(=O)CC(C(=O)O)N2CCOCC2)cc1 (stereo not shown) [CBK266955],129.626
14,CSc1nnc(CCCNC(=O)c2cccc(C#N)c2)n1CC(C)C [CBK306023],118.278
15,CC(=O)Nc1c(-c2ccc(C)cc2)c(=O)c2ccccc2n1C [CBK287775],139.987
16,CCOc1ncccc1C(=O)N(Cc1nnc(-c2ccc(Cl)cc2)o1)C1CC1 [CBK296934],137.612
17,COc1ccc(-n2c(CNCc3ccc4c(c3)OCO4)nc3ccccc3c2=O)cc1 [CBK074522],81.3032
18,O=c1cc(Nc2ccc3c(c2)OCO3)[nH]c(=O)n1-c1ccc(Cl)cc1 [CBK287507],152.403
19,Cc1ccn(CCC(=O)N2CCC3(C/C=C/C[C@H]4COCC[C@@H]4NC(=O)CNC3=O)CC2)n1 [CBK292070],143.875
20,Cc1cc(O)cc(=O)n1Cc1cccnc1 [CBK291123],101.06
21,Cc1cccc(-c2n[nH]c(=S)n2CC(=O)Nc2cccc(C#Cc3ccccn3)c2)c1 [CBK296633],148.399
22,COCCN(C(=S)Nc1ccc(OC)cc1)C(C)c1cccnc1 (stereo not shown) [CBK294471],164.066
23,COc1ccc(-c2cnn(-c3ccc(OC(F)(F)F)cc3)n2)cc1 [CBK112773],108.107
24,COc1ccc(N2C(=O)CC(NNC(N)=O)C2=O)cc1 (stereo not shown) [CBK263080],97.1665
25,NCCCNc1ccc(C(=O)Nc2ccc(Cl)cc2)cc1[N+](=O)[O-] [CBK267880],64.9876
26,Cc1csc2ncnc(N3CCN(C(=O)C4CC4)CC3)c12 [CBK023593],104.913
27,O=C(NCC1CCCCC1)c1ccccc1-n1cccc1 [CBK149603],100

row,SMILES,% of control remaining [%]
1,CCOC(=O)c1cnc2ccc(Cl)cc2c1NC [CBK307605],132.636
2,CN(Cc1ccccc1)C(=O)CNS(=O)(=O)c1ccc([N+](=O)[O-])cc1 [CBK268586],95.7296
3,CCCn1ccnc1CN1CCC2(CC1)CC(C(=O)O)N(C(C)=O)C2 (stereo not shown) [CBK306691],129.972
4,O=C(Nc1cccc(-c2noc(-c3ccccn3)n2)c1)c1cccs1 [CBK270283],149.869
5,CC(C)(C)c1cc(C(=O)Nc2ccccn2)n(Cc2ccc(Cl)cc2Cl)n1 [CBK107361],93.8381
6,Cc1cc(OC(C)C(=O)Nc2nnc[nH]2)ccc1Cl (stereo not shown) [CBK269731],105.767
7,CC(=O)CSc1nnc(-c2ccc(F)cc2)o1 [CBK068327],103.687
8,COc1cc(-c2cncc(N(C)CCN(C)C)n2)cc(OC)c1OC [CBK065312],167.781
9,CC(C)(C)NC(=O)COc1ccc(CNCc2ccccn2)cc1 [CBK268420C],131.783
10,CN(Cc1cc(C(C)(C)C)c(O)c(C(C)(C)C)c1)Cc1cc(C(C)(C)C)c(O)c(C(C)(C)C)c1 [CBK261980],117.707
11,Cc1ccc(-c2cc3cccnc3n2CCC(=O)NC2CC2)cn1 [CBK284964],111.854
12,O=[N+]([O-])c1cccc(-c2cc(N3CCC(N4CCCCC4)CC3)ncn2)c1 [CBK037710],127.117
13,O=C(c1cccs1)N1CCCN(c2nccc(C(F)(F)F)n2)CC1 [CBK019390],78.5454
14,Fc1cccc(-c2nccnc2NCc2cccnc2)c1 [CBK037633],100.821
15,CSCCCNC(=O)c1ccc(-c2ccc(OC(F)(F)F)cc2)nc1 [CBK156216],88.9515
16,COc1cc(OC)c(NC(=O)N2CCC(n3c(=O)[nH]c4ccccc43)CC2)cc1Cl [CBK149851],105.317
17,CCN(C)c1c(C)nc2c(OCC(=O)N(C)C)cccn12 [CBK147316],112.442
18,Cc1nn(C)c2ncc(S(=O)(=O)NC(C)c3cccc(F)c3)cc12 (stereo not shown) [CBK305948],140.322
19,CS(=O)(=O)N(CC(=O)Nc1ccc2ccccc2c1)c1ccc(Cl)cc1Cl [CBK267501],128.962
20,CCCCCc1nnc(NC(=O)c2cccs2)s1 [CBK058382],116.79
21,NC(=O)CN1CCCC2(CCN(C(=O)Cc3c[nH]c4ccccc34)C2)C1 (stereo not shown) [CBK132046],100
22,O=C(CCc1cccnc1)Nc1cnc(-c2cccc(OC(F)(F)F)c2)c(-c2cccnc2)n1 [CBK036811],78.7682
23,COc1ccc(C(=O)Nc2c(C)noc2C)c(OC)n1 [CBK200300],106.968
24,COC(=O)c1c(NC(=O)c2ccccc2)csc1C [CBK026684],125.341
25,CN1CCC(N(C2CC2)S(=O)(=O)c2ccc(NC(=O)C(C)(C)C)cc2)CC1 [CBK021115],124.858
26,O=C(Cn1cccc2cc(C3CCNCC3)nc1-2)N1CCCC1 [CBK284680],105.826
27,Cn1cccc1-c1cc(C(=O)N/N=C/c2cccc(O)c2)[nH]n1 [CBK263397],124.798

row,SMILES,% of control remaining [%]
1,CC(C)c1ccc(/C=C/C(=O)NCCc2c[nH]cn2)cc1 [CBK149629],116.436
2,NC1OC(COC(=O)c2ccccc2)C(OC(=O)c2ccccc2)C1OC(=O)c1ccccc1 (stereo not shown) [CBK010282],121.421
3,CC(C)c1nc(CC(=O)N2CCOC(c3ccc(F)cc3)C2)cs1 (stereo not shown) [CBK305334],159.54
4,FC(F)(F)c1cc(-c2cc(N3CCN(c4ccccn4)CC3)ncn2)cc(C(F)(F)F)c1 [CBK091082],147.754
5,COc1cc(C#N)ccc1OCc1cc(C)on1 [CBK002581],108.74
6,CCCC(=O)NC1CCN(C(=O)c2snnc2CC)CC1 [CBK297744],134.013
7,CS(=O)(=O)c1ccc(CN2C(=O)CC3(CCN(Cc4ccccc4)CC3)C2=O)cc1 [CBK144065T],100.011
8,C#CCn1ncc2c3sc(C)cc3n(CC)c2c1=O [CBK284225],147.981
9,COc1ccccc1N(CC(=O)Nc1ccc2c(c1)oc1ccccc12)S(=O)(=O)c1ccccc1 [CBK264737],120.557
10,Cc1occc1C(=O)Nc1nc(CC(=O)N(C)Cc2ccsc2)cs1 [CBK305631],136.448
11,O=C(NCCc1ccc(Cl)cc1)C1(Cc2cccc(-c3cccnc3)c2)CCOCC1 [CBK285606],84.5297
12,COC(=O)CNC(=O)C1CC(=O)N(c2ccccc2Br)C1 (stereo not shown) [CBK296672],147.617
13,O=C(c1ccc(F)cc1)N1CCC(Oc2nccnc2OCc2ccc(Cl)c(Cl)c2)CC1 [CBK160721],127.802
14,COc1cc2c(cc1OC)CN(Cc1ccc(OCc3ccccc3)c(OC)c1)CC2 [CBK033974],118.096
15,O=C(CN(C(=O)CNC(=O)c1cccs1)c1cccc(C(F)(F)F)c1)NC1CCCCC1 [CBK084697],96.31
16,CCNC(=O)N[C@@H]1C=C[C@@H](c2c(C)nn(CCC#N)c2C)C1 [CBK289171],111.766
17,CCOc1ccc(N(Cc2ccc(C(=O)O)cc2)S(C)(=O)=O)cc1 [CBK287231],128.925
18,CCOc1cc(/C=C(/C#N)c2nc3ccccc3[nH]2)ccc1OCc1ccc(C(=O)O)o1 [CBK267923],130.133
19,C[n+]1cn(/N=C/c2ccco2)cn1 [CBK028562I],137.491
20,CCN(CC)CCCNc1c([N+](=O)[O-])c(=O)n(C)c2ccccc12 [CBK264893],100.644
21,CC(C)c1nc(NCCc2nnc3n2CCCC3)nc(N(C)C)n1 [CBK306426],68.8088
22,O=C(c1cccc(F)c1)N1CCCC(c2cc3cccnc3[nH]2)C1 (stereo not shown) [CBK284939],88.3271
23,Clc1cccc(C2N(Cc3ccccc3)CCN2Cc2ccccc2)c1 [CBK261222],102.941
24,C(=C\c1nccnc1OCCOc1ccccc1)/c1ccccc1 [CBK106885],100
25,Cc1ccc(C(=O)N2CCC(C(=O)NC(c3ccccc3)c3ccc4ccccc4n3)CC2)cc1 (stereo not shown) [CBK059663],103.412

# A run of entries of the results above, for reference:
row,SMILES,% of control remaining [%]
21,CC(C)c1nc(NCCc2nnc3n2CCCC3)nc(N(C)C)n1 [CBK306426],68.8088
22,O=C(c1cccc(F)c1)N1CCCC(c2cc3cccnc3[nH]2)C1 (stereo not shown) [CBK284939],88.3271
23,Clc1cccc(C2N(Cc3ccccc3)CCN2Cc2ccccc2)c1 [CBK261222],102.941
